No constants are given. Whether binding was seen depends on the method and setting. Some entries that bind do so weakly or less than the wild type.
How the values were obtained:
[1] = biological target: T1, 5T4 on the cell surface (human cancer cell lines and 5T4-transfected HEK293 cells) (human) (UniProt Q13641); assay: flow cytometry on cancer cell lines and 5T4-transfected HEK293 cells
T1 sequence: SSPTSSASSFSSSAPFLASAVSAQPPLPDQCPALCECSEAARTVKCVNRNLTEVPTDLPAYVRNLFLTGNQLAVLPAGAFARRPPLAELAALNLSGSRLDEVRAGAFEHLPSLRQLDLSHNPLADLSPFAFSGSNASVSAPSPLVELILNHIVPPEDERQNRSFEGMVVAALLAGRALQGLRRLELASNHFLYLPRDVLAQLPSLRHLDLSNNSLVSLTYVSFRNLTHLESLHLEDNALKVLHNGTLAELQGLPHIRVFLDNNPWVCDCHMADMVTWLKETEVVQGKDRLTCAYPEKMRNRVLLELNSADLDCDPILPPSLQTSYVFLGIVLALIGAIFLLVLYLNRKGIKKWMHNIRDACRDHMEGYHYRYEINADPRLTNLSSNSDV

[2] = biological target: T2, recombinant human 5T4 protein (human, UniProt Q13641 32-355); assay: SPR (Biacore 8K) sandwich: 5T4 held by captured (m)Ab2, then humanized Ab1 injected
T2 construct: The ELISA protein was bought (Sino biologics and Biorbyt); also called recombinant 5T4 protein; trophoblast glycoprotein (TPBG)
T2 sequence: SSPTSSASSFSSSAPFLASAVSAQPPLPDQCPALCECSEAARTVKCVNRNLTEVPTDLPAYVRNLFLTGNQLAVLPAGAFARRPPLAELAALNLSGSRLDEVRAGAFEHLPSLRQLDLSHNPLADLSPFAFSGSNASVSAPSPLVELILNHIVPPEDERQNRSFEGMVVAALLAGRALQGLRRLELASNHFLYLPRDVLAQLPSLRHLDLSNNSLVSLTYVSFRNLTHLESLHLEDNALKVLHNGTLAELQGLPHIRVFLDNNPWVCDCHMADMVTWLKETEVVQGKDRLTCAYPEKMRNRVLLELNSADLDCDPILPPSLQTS

[3] = biological target: T2, recombinant human 5T4 protein; assay: SPR sandwich, (h)Ab1 injected over 5T4 held by captured (m)Ab2

Measured: binding

B1: humanized antibody No. 1 ((h)Ab1) (antibody, V domains shown)
VH: QVQLVQSGAEVKKPGASVKVSCKASGYSFTDYYMHWVRQAPGQGLEWMGRVSPNNGATNTNQKFKDRVTMTRDTSISTAYMELRSLRSEDTAVYYCARSTMITSYYFDYWGQGTLVTVSS
VL: DIVMTQSPSFLSVSVGDRVTITCKASQSVSTDVAWYQQKPGQAPKLLIYFASDRYTGVPDRFSGSGSGTDFTFTISSLQAEDVAVYYCQQDYSSPPTFGGGTKLEIK
notes: The FcγR assay calls it 'without Fc mutations'; also called humanized Ab1; humanized monospecific antibody Ab1
binds: all assays above
